Assay results taken from PubChem BioAssay AID445 (National Center for Advancing Translational Sciences (NCATS), 2006).
Some of the results follow. These are further read-outs of the screen, such as a control signal, another cell line or another target. No call is given for them. Most of these compounds were active or inconclusive in the main read-out, so they are no random draw. Words in brackets tell the shape of the fitted curve; partial curves, single points and poor fits give uncertain potencies.

Test: IkB Signaling
Settings: ABC-DLBCL IkBa-CBG/CBR dual luciferase ratio (green luciferase fused to IkBa over red control in OCI-Ly3 lymphoma cells), 4 h; measured here: control luc red channel unless noted
How it was run: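 Curves were fitted separately to fusion (green), unfused (red) and ratio luminescence, then classed by r2, magnitude and activity. Cells: OCI-Ly3, 4 h compound plus doxycycline at 37C; 10 uM MG-132 defined full response.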

Structure (SMILES)	AC50
Cc1ccc(-c2nnc(Nc3ccccc3)o2)cc1	0.631 µM [falling, full curve]
Cc1ccc(-c2cc(C(=O)NC3=NCCS3)c3cc(Br)ccc3n2)o1	15.8 µM [falling, partial curve]
CN1CCN(C(CNC(=O)c2c(F)cccc2F)c2ccc3c(c2)OCO3)CC1 (stereo not drawn)	1.26 µM [rising, partial curve]
O=c1c2ccccc2n(Cc2cccc(Cl)c2)c(=O)n1Cc1ccccc1	3.16 µM [falling, full curve, poor fit]
COCCCNc1nc(NCc2ccc(C)cc2)c2cnn(C)c2n1	20 µM [falling, single point]
COc1cccc2c1cc1c(=O)n(CC(=O)N3CCC(C)CC3)nc(C)n12	15.8 µM [falling, partial curve]
CCOc1ccc2[nH]c(=O)c(CN(Cc3nnnn3CCc3ccccc3)CC3CCCO3)cc2c1 (stereo not drawn)	31.6 µM [falling, single point]
O=c1oc2ccccc2cc1-c1nc(-c2cccs2)no1	0.126 µM [falling, full curve]
CCC(=O)Nc1sc2c(c1C(=O)Nc1ccc(Br)cc1)CCCCC2	2.51 µM [falling, full curve, poor fit]
COc1ccccc1-c1nc(SCC(=O)c2ccc(Cl)cc2)n[nH]1	10 µM [falling, partial curve]
Cc1cc(C)n(-c2nc3ccccc3nc2Nc2ccc(CC(=O)O)cc2)n1	1.26 µM [falling, partial curve]
O=C(CN1CCN(CC(=O)c2ccc(F)cc2)CC1)Nc1ccccc1Cl	5.01 µM [falling, partial curve]
COc1ccc(CCNC(=O)c2ccc(Cn3c(=O)[nH]c4cc(OC)c(OC)cc4c3=O)cc2)cc1OC	6.31 µM [falling, partial curve]
NC(=O)c1ccc(-n2nnnc2SCc2ccc(F)cc2)cc1	12.6 µM [falling, partial curve]
O=S(=O)(c1ccc2c(c1)nc(COc1ccc(Cl)cc1)n2CC1CCCO1)N1CCOCC1 (stereo not drawn)	25.1 µM [falling, partial curve]
Cc1cc2n(n1)CCC(=O)N2Cc1ccc(C(=O)Nc2cccc(C(F)(F)F)c2)cc1	25.1 µM [falling, partial curve, poor fit]
CCOc1ccccc1-n1nnnc1SCC(=O)NC(=O)NCc1ccco1	31.6 µM [falling, single point]
CCOC(=O)c1ccc2nc(NC(=O)c3cccs3)sc2c1	15.8 µM [falling, partial curve]
Cc1ccc(Nc2c(-c3ccc(C)cc3)nc3c(C)cccn23)cc1	25.1 µM [falling, single point]
O=C(NCCc1ccc(Cl)cc1)C(=O)NCC(c1cccs1)S(=O)(=O)c1ccccc1 (stereo not drawn)	3.16 µM [falling, partial curve]
N#Cc1cccc(NC(=O)COc2ccc(-n3ccnc3)cc2)c1	31.6 µM [falling, partial curve]

Arranged by number of heavy atoms (low to high): some entries from above.
Structure (SMILES)	AC50
COCCCNc1nc(NCc2ccc(C)cc2)c2cnn(C)c2n1	20 µM [falling, single point]
Cc1cc(C)n(-c2nc3ccccc3nc2Nc2ccc(CC(=O)O)cc2)n1	1.26 µM [falling, partial curve]
O=C(NCCc1ccc(Cl)cc1)C(=O)NCC(c1cccs1)S(=O)(=O)c1ccccc1 (stereo not drawn)	3.16 µM [falling, partial curve]

More structures:

Structure (SMILES)	AC50
O=S(=O)(c1ccccc1)N1CCN(CC(O)COc2ccc3c(c2)CCC3)CC1 (stereo not drawn)	15.8 µM [falling, partial curve]
CNC(=O)c1c(NC(=O)Cc2coc3ccc(OC)cc23)sc2c1CCCC2	15.8 µM [falling, partial curve]
CC(C)Cc1cc(C(=O)Nc2ccc(F)cc2F)no1	5.01 µM [falling, partial curve]
Cc1ccc2oc(=O)c3cc(C(=O)NCCc4ccc(Cl)cc4)sc3c2c1	5.01 µM [rising, partial curve]
CCS(=O)(=O)N1CCc2cc(C(=O)NCc3ccccc3Cl)ccc21	0.631 µM [falling, full curve]
CCCCc1nn2c(=O)cc(COC(=O)c3ccccc3C)nc2s1	20 µM [falling, single point]
COc1ccc(NC(=O)C(C(C)C)N2Cc3ccccc3C2=O)cc1 (stereo not drawn)	10 µM [falling, partial curve]
CCOc1ccccc1NS(=O)(=O)c1cc(-c2cnc(C3CC3)o2)ccc1C	0.00631 µM [rising, full curve, poor fit]
Cc1ccc(-n2nc3c(=O)n(C(C)C(=O)NCc4ccccc4C)nc(C)c3c2C)cc1 (stereo not drawn)	6.31 µM [falling, partial curve]
COc1ccccc1NC(=O)c1sc2nc3n(c(=O)c2c1C)N=C(c1cccc(Br)c1)CS3	0.251 µM [falling, full curve, poor fit]
COc1ccc(OC)c(/C=C(\C#N)c2nc(-c3ccc(F)cc3)cs2)c1	31.6 µM [falling, single point]
Nc1c(-c2nc(-c3ccc4c(c3)OCO4)cs2)c2ccccn2c1C(=O)c1ccc(Cl)cc1	3.16 µM [falling, partial curve]
CCOc1ccc(NC(=O)Cc2c[nH]c3ccccc23)cc1	12.6 µM [falling, single point]
Cc1ccc(SCc2nc(-c3ccc(C(=O)NCC(C)c4ccccc4)cc3)oc2C)cc1 (stereo not drawn)	7.94 µM [falling, partial curve]
CCc1ccc(S(=O)(=O)c2nnn3c2nc(NCc2ccccc2)c2cc(Cl)ccc23)cc1	10 µM [falling, partial curve]
O=C(Nc1ccc(Cl)cc1)c1cc(S(=O)(=O)NC2CCCCCC2)ccc1F	12.6 µM [falling, partial curve]
CCCNC(=O)C(Cc1ccccc1)NS(=O)(=O)c1ccc2c(c1)c(=O)n(C)c(=O)n2C (stereo not drawn)	0.0126 µM [falling, full curve, poor fit]
CCOc1ccc(C(=O)Nc2ccc3c(c2)OCCO3)cc1Br	20 µM [falling, partial curve]
O=C(CN1CCN(Cc2ccccc2Cl)C1=O)NCCc1ccc(Cl)cc1	5.01 µM [falling, partial curve, poor fit]
Cc1ccc(-c2csc3ncnc(Nc4ccc(C(=O)O)cc4)c23)cc1	5.01 µM [falling, partial curve]
COc1cc(NS(=O)(=O)c2ccc(-c3cc(C)no3)cc2)cc(OC)c1	5.01 µM [falling, full curve]

Structure (SMILES)	AC50
COc1ccccc1-c1nc2cc(NC(=O)c3ccccc3Cl)ccc2o1	12.6 µM [falling, partial curve]
COc1cc(Br)cc(-c2nc3c(c(=O)[nH]c(=O)n3Cc3ccccc3)n2C)c1O	31.6 µM [falling, partial curve]
COc1ccc(CCNc2ncnc3onc(C)c23)c(OC)c1	2 µM [falling, partial curve]
O=C(CSc1nnc(-c2cccnc2)n1Cc1ccco1)N1c2ccccc2Sc2ccccc21	39.8 µM [rising, single point] [measured here: IkB-luc green channel]
CCc1ccccc1NC(=O)c1ccc(F)c(S(=O)(=O)N2CCN(c3cccc(Cl)c3)CC2)c1	39.8 µM [falling, single point]
Cc1ccc(O)c(-c2n[nH]c3c2C(c2ccc(F)cc2)N(Cc2ccco2)C3=O)c1 (stereo not drawn)	31.6 µM [falling, single point]
Cc1c(O)cccc1C(=O)N[C@@H](CSc1ccccc1)[C@H](O)CN1C[C@H]2CCCC[C@H]2C[C@H]1C(=O)NC(C)(C)C	15.8 µM [falling, partial curve]
CCOC(=O)c1cnc2ccc(OCC)cc2c1Nc1ccc(OCc2ccccc2Cl)cc1	6.31 µM [falling, partial curve]
Cc1cccc(CNC(=O)CN2C(=O)CSc3c2c(C)nn3-c2ccccc2)c1	20 µM [falling, partial curve]
CC(=O)c1cc(-c2ccc(F)cc2)n(CCC(=O)Nc2nc3ccc(C)cc3s2)c1C	0.794 µM [rising, full curve]
Cc1cccc(-c2nc(CN3CCCC(C(=O)NC4CCCCC4)C3)c(C)o2)c1 (stereo not drawn)	31.6 µM [falling, partial curve]
Cc1ccc(C(=O)N2CCC(C)CC2)cc1NC(=O)c1nsc2ccccc12	25.1 µM [falling, partial curve]
COc1ccc(NC(=O)N(CCN2CCCC2)Cc2cc3cc(OC)c(OC)cc3[nH]c2=O)cc1	2.51 µM [rising, partial curve] [measured here: IkB-luc green channel]
CSc1nn(Cc2ccc(F)cc2)c(N)c1S(=O)(=O)c1ccc(Cl)cc1	31.6 µM [falling, single point]
COc1cccc(CSc2nc(-c3ccccc3OC)nc3c2Cc2c(CO)cnc(C)c2O3)c1	12.6 µM [falling, partial curve]
Cc1ccc(C(=O)CC2(O)C(=O)N(Cc3ccccc3)c3ccc(Br)cc32)cc1 (stereo not drawn)	20 µM [falling, partial curve]
CCCCOC(=O)c1ccc(NC(=O)/C(C#N)=C/c2ccc(C)o2)cc1	0.158 µM [falling, full curve]
CCc1cc2c(NCC3CCCO3)ncnc2s1 (stereo not drawn)	31.6 µM [falling, single point]
CCCCC(c1nnnn1CCOC)N1CCN(c2cccc(OC)c2)CC1 (stereo not drawn)	25.1 µM [falling, partial curve]
CCC(C)n1cnc2c(c1=O)c1nc3ccccc3nc1n2Cc1ccc2c(c1)OCO2 (stereo not drawn)	7.94 µM [falling, single point]
COC(=O)c1ccc(NC(=O)CN(c2cccc(C(F)(F)F)c2)S(C)(=O)=O)cc1	25.1 µM [falling, partial curve, poor fit]
